Binding data for 1 molecule are collected here from article PMC12514197.

The test concerns the target T1, his-tagged DXD3 (LARGE1dTM D563N/D565N) (UniProt O95461).
T1 sequence: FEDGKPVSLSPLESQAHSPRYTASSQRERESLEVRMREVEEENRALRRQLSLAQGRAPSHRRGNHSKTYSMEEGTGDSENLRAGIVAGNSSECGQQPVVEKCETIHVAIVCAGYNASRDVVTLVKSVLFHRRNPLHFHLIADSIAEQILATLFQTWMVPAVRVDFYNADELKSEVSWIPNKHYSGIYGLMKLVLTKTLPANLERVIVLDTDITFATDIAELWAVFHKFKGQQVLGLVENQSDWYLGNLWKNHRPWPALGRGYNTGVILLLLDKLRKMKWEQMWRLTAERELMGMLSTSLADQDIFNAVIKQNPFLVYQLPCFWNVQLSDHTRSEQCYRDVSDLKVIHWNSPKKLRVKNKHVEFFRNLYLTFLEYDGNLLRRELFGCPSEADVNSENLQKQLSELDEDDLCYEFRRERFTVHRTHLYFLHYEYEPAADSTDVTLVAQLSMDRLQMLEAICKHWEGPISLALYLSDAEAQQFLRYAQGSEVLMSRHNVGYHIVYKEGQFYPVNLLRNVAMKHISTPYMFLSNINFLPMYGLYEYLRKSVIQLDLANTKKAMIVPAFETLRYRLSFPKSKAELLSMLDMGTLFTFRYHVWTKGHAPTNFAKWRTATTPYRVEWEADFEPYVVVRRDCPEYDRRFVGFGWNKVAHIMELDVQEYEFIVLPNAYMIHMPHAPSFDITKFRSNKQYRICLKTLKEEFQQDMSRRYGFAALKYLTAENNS
Put plainly: tandem affinity purification; co-expression of two differently tagged LARGE1dTM protomers (FLAG-tagged DXD1 and his-tagged DXD3), then tandem affinity purification.

These are yes or no findings as the source states them, for the method shown. Some binding calls cover weakened binding; strength is not graded here. Tags and fused reporters may be left off the sequences shown.

B1: FLAG-tagged DXD1 (LARGE1dTM D242N/D244N) (enzyme, UniProt O95461 34-756)
chain: FEDGKPVSLSPLESQAHSPRYTASSQRERESLEVRMREVEEENRALRRQLSLAQGRAPSHRRGNHSKTYSMEEGTGDSENLRAGIVAGNSSECGQQPVVEKCETIHVAIVCAGYNASRDVVTLVKSVLFHRRNPLHFHLIADSIAEQILATLFQTWMVPAVRVDFYNADELKSEVSWIPNKHYSGIYGLMKLVLTKTLPANLERVIVLNTNITFATDIAELWAVFHKFKGQQVLGLVENQSDWYLGNLWKNHRPWPALGRGYNTGVILLLLDKLRKMKWEQMWRLTAERELMGMLSTSLADQDIFNAVIKQNPFLVYQLPCFWNVQLSDHTRSEQCYRDVSDLKVIHWNSPKKLRVKNKHVEFFRNLYLTFLEYDGNLLRRELFGCPSEADVNSENLQKQLSELDEDDLCYEFRRERFTVHRTHLYFLHYEYEPAADSTDVTLVAQLSMDRLQMLEAICKHWEGPISLALYLSDAEAQQFLRYAQGSEVLMSRHNVGYHIVYKEGQFYPVNLLRNVAMKHISTPYMFLSDIDFLPMYGLYEYLRKSVIQLDLANTKKAMIVPAFETLRYRLSFPKSKAELLSMLDMGTLFTFRYHVWTKGHAPTNFAKWRTATTPYRVEWEADFEPYVVVRRDCPEYDRRFVGFGWNKVAHIMELDVQEYEFIVLPNAYMIHMPHAPSFDITKFRSNKQYRICLKTLKEEFQQDMSRRYGFAALKYLTAENNS
B1: the binding result is given as “binds”.
